In article PMC7819943, “Rice protein-binding microarrays: a tool to detect cis-acting elements near promoter regions in rice”:
The other results are listed elsewhere or left out.

Sequences of proteins named here, by UniProt entry; tags and fusion partners are left off.
UniProt Q0JBA9, entry or part of it: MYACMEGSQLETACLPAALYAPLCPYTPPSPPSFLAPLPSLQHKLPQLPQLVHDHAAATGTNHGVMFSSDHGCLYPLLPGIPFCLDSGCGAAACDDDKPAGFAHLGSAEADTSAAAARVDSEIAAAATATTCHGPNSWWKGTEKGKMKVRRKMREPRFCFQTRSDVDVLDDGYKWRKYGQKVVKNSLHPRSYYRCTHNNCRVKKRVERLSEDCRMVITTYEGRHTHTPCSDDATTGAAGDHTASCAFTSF

biological target: OsWRKY34 (Oryza sativa, UniProt Q0JBA9 1-250); assay: protein-binding microarray (RPBM); PBS, 2% BSA, 51.3 ng/ul salmon testes DNA, 50 uM zinc acetate, 200 nM TF, 25 C, 1 h; high values mean tight binding; details: protein: recombinant; tags: N-terminal polyhistidine and DsRed monomer fusion (pET32a); label: CyDye5-dUTP incorporated in the synthesized complementary strand; 3' TTTTT single-stranded linker to array surface; dsDNA, one strand shown
How it was run: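 Ni–NTA purification followed expression in E. coli BL21-CodonPlus of transcription factors fused N-terminally to a polyhistidine tag and DsRed. At 200 nM in PBS with 2% BSA, salmon testes DNA and 50 µM zinc acetate, the protein was incubated for 1 h at 25 °C with a custom Agilent array that had been primer-extended with Cy5-dUTP and blocked with 2% BSA. After washing, the array was read on an Axon 4000B scanner. The binding signal is per-feature fluorescence intensity in arbitrary units.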

Sequence	binding signal
CAGTTATTTGCTCTAACTTATGATGTTTCTTTCTTCAAATCGGAGTCACCTAGTGCAG	8600 fluorescence intensity (a.u.)
GCACCACCATCTCGCATCATTTGTTTTTTCTCCCTGGAAACGGAGTCACCTAGTGCAG	12000 fluorescence intensity (a.u.)
GGTCTCTCTTCTTCTAGAGTTCGATTTCCTCTTTTTATCACGGAGTCACCTAGTGCAG	11500 fluorescence intensity (a.u.)
TCCAAATTCGACTCCTCTTTCCATACGTACACAATCCCTCCGGAGTCACCTAGTGCAG	9150 fluorescence intensity (a.u.)
ATCGCCTCCGGTGTTCTGTTCCTGCTTCTCCTCGTTGTGTCGGAGTCACCTAGTGCAG	10800 fluorescence intensity (a.u.)
TCAATTTTATCACTTTCCCAACTCACCTCTCTCATCTTTCCGGAGTCACCTAGTGCAG	9300 fluorescence intensity (a.u.)
GGCATGGAACTGTTATATCCAATCTGTTCATTTGTTACTGCGGAGTCACCTAGTGCAG	8660 fluorescence intensity (a.u.)
ACAGCCGTTAGCCCTCGCCGTCAATCGCAAACCCTCACACCGGAGTCACCTAGTGCAG	9410 fluorescence intensity (a.u.)
CCTCCTCTCCCTTTTCTGCTGTTTCTCTCTCTCACACACTCGGAGTCACCTAGTGCAG	8470 fluorescence intensity (a.u.)
TCTATACTAGTTGCCCGCTTGCAATCCTAATGGTGAAATCCGGAGTCACCTAGTGCAG	10300 fluorescence intensity (a.u.)
CGCCGTCGTCATCTGTCCACGATATTTTTCTGGTGTTAAACGGAGTCACCTAGTGCAG	11900 fluorescence intensity (a.u.)
ATGGGTTGAGCGAGCCTCTTGCATTTGCCTATCTAGAAATCGGAGTCACCTAGTGCAG	9070 fluorescence intensity (a.u.)
TTCCTTCAAATCCAGATTCTAATTAATTTGTTCCTTTCGTCGGAGTCACCTAGTGCAG	9810 fluorescence intensity (a.u.)
ACATAAGCATTAGGGCTAAAGTGCAACCTAATATGTTGCTCGGAGTCACCTAGTGCAG	8420 fluorescence intensity (a.u.)
CTCGCCACCGGGGCCGCCATACAATTACCTCCATAAATCTCGGAGTCACCTAGTGCAG	9010 fluorescence intensity (a.u.)
CTAACATAACTATTTGCACTTTTTTTTGTATGTACATCATCGGAGTCACCTAGTGCAG	10900 fluorescence intensity (a.u.)
ATCCTGCTCCGCCGCGACTTCGTCTTCGTCCTCCTCCGATCGGAGTCACCTAGTGCAG	8820 fluorescence intensity (a.u.)
CGATGTGGGTTGCTTTTGCTGCAACGGTCGTGTTTCCAGACGGAGTCACCTAGTGCAG	9070 fluorescence intensity (a.u.)
AAACATTTTATAGATTTTCTTCCACCTAGGCATGCTTTTTCGGAGTCACCTAGTGCAG	9090 fluorescence intensity (a.u.)
ATGGAGGGAGTATTAATTATCGTAATTAGCATTATTTTTTCGGAGTCACCTAGTGCAG	8190 fluorescence intensity (a.u.)
TTCCTCACCGGCCACGCCTCTCTCGCCACGCCTCTTCTCCCGGAGTCACCTAGTGCAG	8290 fluorescence intensity (a.u.)
AATGGTTTTATTGGTTTCAGTTTTATCTCTCAGTTTCTAACGGAGTCACCTAGTGCAG	8700 fluorescence intensity (a.u.)
ATACACGACGCTATATTCAATTGTACTGTGCTGAATTTAACGGAGTCACCTAGTGCAG	9720 fluorescence intensity (a.u.)

Part of the list above, in markdown.

| Sequence | binding signal |
| --- | --- |
| CCTCCTCTCCCTTTTCTGCTGTTTCTCTCTCTCACACACTCGGAGTCACCTAGTGCAG | 8470 fluorescence intensity (a.u.) |
| TCTATACTAGTTGCCCGCTTGCAATCCTAATGGTGAAATCCGGAGTCACCTAGTGCAG | 10300 fluorescence intensity (a.u.) |
